Taken from: PubChem BioAssay AID1259260 (Sanger Institute, 2017)
Aim: 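Kinome knock-down with three anchor drugs to find synergy partners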 (primary screen). Cells: human NCI-H716 colorectal cancer cells. Knock-down reagent: siRNA pool against human genes. Treatment: anchor drugs BYL719 (alpelisib) 1 µM, cetuximab 5 µg/ml or trametinib 10 nM, each at a dose chosen to harm viability only mildly; DMSO vehicle for the knock-down-alone arm. Read-out: 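Replicate-averaged viability relative to a non-targeting pool, a robust z-score for knock-down alone, and a synergy score per anchor drug versus each agent alone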. Reading the numbers: viability robust z-score, siRNA alone: higher = more surviving cells; below -3 called essential; viability vs control, no drug: higher = more surviving cells; synergy score with BYL719 and synergy score with cetuximab and synergy score with trametinib: higher = stronger synergy (synthetic lethality) with drug. Hit rule: 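Essential when the robust z-score for knock-down alone falls below -3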. Meaning of the calls: active = essential (knock-down alone lowers viability); inactive = no essential effect.
In all, the deposit lists 794 reagents; below is a part drawn at random. 13 of all reagents (1.6%) count as active. 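Calls reflect only knock-down without drug; synergy above 0.15 was grouped apart and does not change the call.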 No viability above 1 is reported: the scale is capped. Reagent sequences are not shown. Not given: the amount of reagent, the time to read-out.

target gene,"viability robust z-score, siRNA alone","viability vs control, no drug (fraction of control)",synergy score with BYL719,synergy score with cetuximab,synergy score with trametinib,Call
CIT,-2.67,0.66,-0.0496,-0.0139,-0.0265,inactive
MAP3K15,0.602,1,-0.000388,0.00125,0.173,inactive
EIF2AK3,-1.06,0.827,-0.145,-0.146,0.138,inactive
MAP3K21,0.602,1,-0.0654,-0.1,0.0344,inactive
DGKI,0.602,1,-0.154,0.131,0.0521,inactive
CDK11B,0.00197,0.938,-0.233,-0.156,0.0199,inactive
RIOK1,-1.6,0.771,-0.216,0.0316,0.0724,inactive
SBK1,0.602,1,-0.215,-0.1,-0.04,inactive
IGF1R,-1.81,0.75,-0.0883,0.0515,-0.0114,inactive
PRKCSH,-0.219,0.915,-0.00665,-0.0813,-0.0716,inactive
PAK5,-0.631,0.872,0.0104,-0.0941,-0.125,inactive
MAP3K10,0.602,1,-0.26,-0.1,-0.146,inactive
BMPR1B,0.602,1,-0.0369,-0.1,0.128,inactive
OXSR1,0.602,1,0,-0.1,0.17,inactive
TYK2,0.602,1,-0.206,-0.1,-0.0698,inactive
BRWD1,0.33,0.972,-0.0183,-0.126,0.0998,inactive
CALM3,0.556,0.995,-0.102,-0.0467,-0.0132,inactive
MYO3A,-2.64,0.663,-0.102,-0.0959,-0.0946,inactive
TAOK1,0.0305,0.941,-0.146,-0.138,-0.00354,inactive
CDK4,-1.2,0.812,0.0173,0.157,-0.00466,inactive
PASK,0.602,1,0.0824,0.079,-0.0417,inactive
TAF1L,0.602,1,0.0319,-0.1,0.132,inactive
PRKAB1,0.602,1,-0.248,-0.1,-0.0978,inactive
FER,0.602,1,-0.283,-0.1,-0.164,inactive
PINK1,0.602,1,-0.0868,0.0619,0.24,inactive
TAOK2,0.602,1,-0.112,-0.1,0.0913,inactive
PRPS1L1,-1.66,0.765,-0.373,0.143,-0.116,inactive
PLK4,-1.14,0.819,-0.104,0.0189,0.000604,inactive
MAP3K4,-0.997,0.834,-0.233,-0.0687,-0.171,inactive
PIP5K1B,0.153,0.953,-0.0635,0.0684,0.135,inactive
CKMT1B,0.602,1,-0.159,-0.1,0.0506,inactive
BMAL1,0.41,0.98,-0.000173,-0.118,0.227,inactive
MAP2K4,0.602,1,-0.188,-0.1,-0.0649,inactive
GATA3,-0.199,0.917,-0.131,-0.135,-0.151,inactive
TSSK2,0.585,0.998,-0.0811,-0.0216,0.0463,inactive
MAPK8,0.602,1,-0.0956,-0.1,0.0774,inactive
GRK5,0.398,0.979,-0.165,-0.1,0.358,inactive
PKIA,0.602,1,-0.0233,-0.1,0.0212,inactive
FLT4,0.602,1,-0.283,-0.1,0.0462,inactive
NEK5,0.602,1,-0.126,0.0385,0.0447,inactive
AAK1,-0.146,0.922,-0.207,0.0836,0.0714,inactive
DIS3,0.16,0.954,0.0123,-0.142,-0.0984,inactive
SLK,-1.19,0.814,-0.255,-0.152,-0.115,inactive
TLK1,0.602,1,-0.102,-0.1,-0.0428,inactive
PCBP1,0.602,1,-0.0105,-0.0113,0.091,inactive
PHKG1,0.602,1,-0.0905,-0.1,0.281,inactive
SRPK3,0.602,1,-0.226,-0.1,0.0844,inactive
BUB1B,-2.58,0.669,-0.268,-0.223,0.00362,inactive
MPP1,0.602,1,-0.219,-0.00317,0.0162,inactive
RNASEL,0.602,1,-0.106,-0.1,-0.0341,inactive

Not a retest: an excerpt of the list.
target gene,"viability robust z-score, siRNA alone","viability vs control, no drug (fraction of control)",synergy score with BYL719,synergy score with cetuximab,synergy score with trametinib,Call
PKIA,0.602,1,-0.0233,-0.1,0.0212,inactive
FLT4,0.602,1,-0.283,-0.1,0.0462,inactive
NEK5,0.602,1,-0.126,0.0385,0.0447,inactive
AAK1,-0.146,0.922,-0.207,0.0836,0.0714,inactive
DIS3,0.16,0.954,0.0123,-0.142,-0.0984,inactive
